In patent publication US9623031B2, “Compositions, methods and kits for treating cancer” (priority 2011, dated 2017):

System: RAW264.7 macrophages
Assay: Endogenous production of PGD3 metabolites in EPA-treated RAW264.7 macrophages (LC-MS)
Assay type: cell-based, mouse

SMILES: CC/C=C\C[C@H](O)C/C=C1/C(=O)C=C[C@@H]1C/C=C\CCCC(=O)O [Δ^12-PGJ3, Δ^12-prostaglandin J3]
- Δ^12-PGJ3 produced by macrophages (50 μM EPA, 48 h post-LPS): ~0.15 μM/10^6 cells
- Δ^12-PGJ3 produced by macrophages (LC-MS/MS): ~0.15 μM/10^6 macrophages
